We go through two molecules from paper PMC4154725.

No constants are given. Whether binding was seen depends on the method and setting. In cells and extracts the contact can be indirect. A result given as binding can be weak or reduced; the word gives no strength.

The target of assay [1] is T1, VE-cadherin (mouse (endogenous in MyEnd)) (UniProt P55284).
T1 sequence: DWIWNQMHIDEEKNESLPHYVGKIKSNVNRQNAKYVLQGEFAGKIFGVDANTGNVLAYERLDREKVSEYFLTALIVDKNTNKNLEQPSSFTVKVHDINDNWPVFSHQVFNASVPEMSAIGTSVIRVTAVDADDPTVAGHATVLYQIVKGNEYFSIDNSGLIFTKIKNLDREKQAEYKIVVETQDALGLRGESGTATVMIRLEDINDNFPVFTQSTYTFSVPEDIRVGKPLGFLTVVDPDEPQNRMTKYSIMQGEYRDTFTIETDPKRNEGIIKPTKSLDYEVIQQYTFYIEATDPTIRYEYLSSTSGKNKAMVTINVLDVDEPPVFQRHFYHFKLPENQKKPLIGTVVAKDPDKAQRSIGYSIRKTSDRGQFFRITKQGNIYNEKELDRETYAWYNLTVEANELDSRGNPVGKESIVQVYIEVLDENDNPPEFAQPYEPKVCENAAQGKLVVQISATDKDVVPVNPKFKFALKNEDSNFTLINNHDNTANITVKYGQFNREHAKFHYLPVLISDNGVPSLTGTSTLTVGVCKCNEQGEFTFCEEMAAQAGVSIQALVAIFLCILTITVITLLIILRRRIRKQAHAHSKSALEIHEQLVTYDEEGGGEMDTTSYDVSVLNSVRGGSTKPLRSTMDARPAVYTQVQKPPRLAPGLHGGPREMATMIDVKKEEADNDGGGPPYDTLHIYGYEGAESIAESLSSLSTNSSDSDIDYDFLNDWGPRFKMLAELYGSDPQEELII
The experiment in a line: co-IP; MyEnd lysate (0.5% Nonidet-40, 10 mM HEPES pH 7.9, 1.5 mM MgCl2, 10 mM KCl, 5 mM EDTA); IP with goat anti-VE-cadherin antibody and Protein G Plus-Agarose, 4°C; Western blot; control IP with beads, no antibody.

The target in assay [2] is PKA regulatory subunit II (RII) alpha (mouse (endogenous in MyEnd)). Nature of the assay: co-IP; MyEnd lysate (0.5% Nonidet-40, 10 mM HEPES pH 7.9, 1.5 mM MgCl2, 10 mM KCl, 5 mM EDTA); IP with rabbit anti-PKA antibody and Protein G Plus-Agarose, 4°C; Western blot; control IP with beads, no antibody; also from cells treated with TAT-Ahx-mhK77, TAT-Ahx-AKAPis or F/R (forskolin/rolipram). In general terms: Immunoblotting shows a protein as a band on a membrane.

In the case of “PKA regulatory subunit II (RII) alpha (mouse (endogenous in MyEnd))”, the binding entry in assay [1] is on record as “binds”.

B1: VE-cadherin (protein, UniProt P55284 46-784)
chain: T1 sequence
Take B1: the binding result in assay [2] is “binds”.
